Measurements: PubChem BioAssay AID226 (DTP/NCI, 2004)
The list shows only some results of the screen, not a fair sample: its compounds were picked by chemical class. Not every dose and run of a compound is shown. T/C is the treated group as % of the vehicle group. Some doses have a count of surviving animals in place of a T/C: the source holds a T/C of zero for them, seemingly a mark for toxic or unscored doses. Some doses without a T/C left all or most animals alive at the check, yet need not have been tolerated: the source hardly ever lists a survival T/C far under the control, and the zero likely stands for such cases as well. Counts of survivors are from the toxicity check (mostly the fifth day) where no day follows; animals may have died later. Schedules are NCI's codes, taken here to give the interval after Q, in days (D) or hours (H), and the number of doses after X. Some entries were tested several times; the results are listed from low to high. For survival time, this PubChem deposit counts one and a half times the control or more as active, and values a quarter to a half above the control carry no call in these data; other NCI protocols may use other cut-offs. Some T/C values are followed by the survivors on the day toxicity was checked, most often the fifth; where neither a count nor a note follows, no animal had died by that day.

Tested on: B6C3F1 mice, intracerebral ependymoblastoma, median survival T/C
Assay: NCI In Vivo Anticancer Drug Screen. Data for tumor model Ependymoblastoma (intracerebral) in B6C3F1 mice
Details: T/C endpoint: median survival time, schedule: Q01DX005 (ip), higher T/C = longer survival
Protocol: The antitumor activity of compounds was measured in mice bearing transplantable tumors. Survival or tumor size were measured and the results are expressed as the measurement made in the treated group (T) divided by the measurement made in the vehicle treated control group (C). The tumor model used in this assay is Ependymoblastoma (intracerebral) in B6C3F1 mice

[1] = dose: 256.0 mg/kg/injection, vehicle: saline with Tween-80
[2] = dose: 16.0 mg/kg/injection, vehicle: Klucel (hydroxypropylcellulose) (HPC)

SMILES: NC(=O)c1[nH]cnc1/N=N\N(CCCl)CCCl
- T/C (dose: 16.0 mg/kg/injection, vehicle: saline with Tween-80): 109, 111, 132 % of control
- T/C (dose: 32.0 mg/kg/injection, vehicle: saline with Tween-80, evaluated on day 40): 125 % of control
- T/C (dose: 32.0 mg/kg/injection, vehicle: saline with Tween-80, evaluated on day 60): 107, 123, 130 % of control
- T/C (dose: 64.0 mg/kg/injection, vehicle: saline with Tween-80, evaluated on day 40): 117 % of control
- T/C (dose: 64.0 mg/kg/injection, vehicle: saline with Tween-80, evaluated on day 60): 118, 123, 142 % of control
- T/C (dose: 128.0 mg/kg/injection, vehicle: saline with Tween-80, evaluated on day 40): 132 % of control
- T/C (dose: 128.0 mg/kg/injection, vehicle: saline with Tween-80, evaluated on day 60): 97, 127, 150 % of control [9 of 10 alive]
- T/C [1]: 156 % of control [9 of 10 alive]
- survivor count [1]: 8 of 10, 9 of 10, 10 of 10
- survivor count (dose: 512.0 mg/kg/injection, vehicle: saline with Tween-80): 0 of 10

SMILES: CN(CCCl)/N=N/c1nc[nH]c1C(N)=O
- T/C (dose: 16.0 mg/kg/injection, vehicle: saline): 122 % of control
- T/C (dose: 32.0 mg/kg/injection, vehicle: saline): 134 % of control
- T/C (dose: 64.0 mg/kg/injection, vehicle: saline): 146 % of control
- T/C (dose: 128.0 mg/kg/injection, vehicle: saline): 142 % of control
- T/C (dose: 256.0 mg/kg/injection, vehicle: saline): 157 % of control

SMILES: CN(N=O)C(=N)N[N+](=O)[O-]
- T/C (dose: 4.0 mg/kg/injection, vehicle: Klucel (hydroxypropylcellulose) (HPC)): 98 and 108 % of control
- T/C (dose: 8.0 mg/kg/injection, vehicle: Klucel (hydroxypropylcellulose) (HPC)): 93 and 103 % of control
- T/C [2]: 109 % of control
- survivor count [2]: 10 of 10
- survivor count (dose: 32.0 mg/kg/injection, vehicle: Klucel (hydroxypropylcellulose) (HPC)): 8 of 10 and 10 of 10
- survivor count (dose: 64.0 mg/kg/injection, vehicle: Klucel (hydroxypropylcellulose) (HPC)): 4 of 10
